{"source": "PubChem BioAssay AID686937 (Drosophila RNAi Screening Center, 2013)", "screen": "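Knock-downs that reduce output of a secreted reporter enzyme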 (primary screen)", "cell system": "Drosophila S2 cells expressing secreted horseradish peroxidase", "reagent": "long dsRNA against Drosophila genes", "time to read-out": "about 5.5 days (5 days dsRNA, then 12 h reporter induction)", "challenge": "reporter expression induced after 5 days of dsRNA, read 12 h later; inducer not stated", "measured": "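Chemiluminescent measurement of peroxidase in the medium 12 h after reporter induction, following 5 days of dsRNA, given as a z-score per plate; higher means more secretion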", "direction": "z-score: higher = more reporter secreted into medium", "note": "The deposit covers about 23,000 reagents; below is an unselected part of those with a known target gene and a result. 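Reduced-secretion tags in replicate 1 do not always agree with the z-scores; no criterion for assigning the tags was given.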 The numbers tell different reagents against one gene apart. A plus sign joins genes that one reagent is predicted to hit. Further read-outs or replicates are left out here. Not stated in the record: the amount of reagent."}
{"target":"CG8419","reagent":1,"z-score, replicate 1":0.76}
{"target":"CG11089 + CG31381","reagent":1,"z-score, replicate 1":0.2}
{"target":"CG11089 + CG31381","reagent":2,"z-score, replicate 1":0.09}
{"target":"CG14933 + CG42486","reagent":1,"z-score, replicate 1":0.2}
{"target":"CG9988","reagent":1,"z-score, replicate 1":0.32}
{"target":"CG3337","reagent":1,"z-score, replicate 1":-1.16}
{"target":"bnb","reagent":1,"z-score, replicate 1":0.09}
{"target":"CG11192","reagent":1,"z-score, replicate 1":0.33}
{"target":"CG10182","reagent":1,"z-score, replicate 1":0.54}
{"target":"CG12898","reagent":1,"z-score, replicate 1":0.32}
{"target":"Trmt61","reagent":1,"z-score, replicate 1":0.42}
{"target":"CG32225","reagent":1,"z-score, replicate 1":0.68}
{"target":"mRpS22","reagent":1,"z-score, replicate 1":0.06}
{"target":"CG4704","reagent":1,"z-score, replicate 1":0.43}
{"target":"CG13856","reagent":1,"z-score, replicate 1":0.12}
{"target":"smog","reagent":1,"z-score, replicate 1":0.15}
{"target":"smog","reagent":2,"z-score, replicate 1":-0.36}
{"target":"Lmx1a","reagent":1,"z-score, replicate 1":0.23}
{"target":"Lmx1a","reagent":2,"z-score, replicate 1":-1.86}
{"target":"CG15878","reagent":1,"z-score, replicate 1":0.11}
{"target":"CG13605","reagent":1,"z-score, replicate 1":0.15}
{"target":"CG14456","reagent":1,"z-score, replicate 1":0.35}
{"target":"CSN7","reagent":1,"z-score, replicate 1":-0.92}
{"target":"CSN7","reagent":2,"z-score, replicate 1":-2.12}
{"target":"CG31928","reagent":1,"z-score, replicate 1":0.19}
{"target":"CG14715","reagent":1,"z-score, replicate 1":0.01}
{"target":"cactin","reagent":1,"z-score, replicate 1":-2.36}
{"target":"Rep","reagent":1,"z-score, replicate 1":-1.4}
{"target":"Tbc1d15-17","reagent":1,"z-score, replicate 1":0.46}
{"target":"zld","reagent":1,"z-score, replicate 1":-1.51}
{"target":"zld","reagent":2,"z-score, replicate 1":0.22}
{"target":"CG13800 (retired record)","reagent":1,"z-score, replicate 1":0.26}
{"target":"mtSSB","reagent":1,"z-score, replicate 1":0.32}
{"target":"CG8320 + ATPCL","reagent":1,"z-score, replicate 1":0.6}
{"target":"Glo1","reagent":1,"z-score, replicate 1":0.45}
{"target":"et","reagent":1,"z-score, replicate 1":0.46}
{"target":"CG32811","reagent":1,"z-score, replicate 1":0.03}
{"target":"Tengl1","reagent":1,"z-score, replicate 1":0.21}
{"target":"CG4709","reagent":1,"z-score, replicate 1":0.44}
{"target":"Aos1","reagent":1,"z-score, replicate 1":-0.06}
{"target":"CG34290","reagent":1,"z-score, replicate 1":0.15}
{"target":"CG30109","reagent":1,"z-score, replicate 1":0.34}
{"target":"scaf6","reagent":1,"z-score, replicate 1":0.35}
{"target":"scaf6","reagent":2,"z-score, replicate 1":0.12}
{"target":"scaf6","reagent":3,"z-score, replicate 1":-1.19}
{"target":"CG13244","reagent":1,"z-score, replicate 1":-3.55}
{"target":"CG30271","reagent":1,"z-score, replicate 1":0.14}
{"target":"Gr58a","reagent":1,"z-score, replicate 1":-0.02}
{"target":"CG30467","reagent":1,"z-score, replicate 1":0.26}
{"target":"CrebB","reagent":1,"z-score, replicate 1":0.57}
{"target":"CG7744","reagent":1,"z-score, replicate 1":0.36}
